# Source: article PMC4949421
# The exact form of at least one protein or probe is not confirmed. Results from cells or extracts need not show a direct contact. Tags and fusion partners may be left off the protein sequences shown.
# Experiments:
# SMAD4 [1] = molecular target: T1, SMAD4 (UniProt Q13485); experiment: EMSA, supershift; details: anti-SMAD4 supershift; 10 mM Tris-HCl pH 7.5, 50 mM NaCl, 1 mM EDTA, 1 mM DTT, 5% glycerol, 2 ug poly(dIdC), 5-10 ug nuclear extract, 1 ng probe, 20 ul, 20 min, room temperature; protein in an extract; label: 32P end label, unlabeled as competitor
# T1 sequence (looked up, limits assumed): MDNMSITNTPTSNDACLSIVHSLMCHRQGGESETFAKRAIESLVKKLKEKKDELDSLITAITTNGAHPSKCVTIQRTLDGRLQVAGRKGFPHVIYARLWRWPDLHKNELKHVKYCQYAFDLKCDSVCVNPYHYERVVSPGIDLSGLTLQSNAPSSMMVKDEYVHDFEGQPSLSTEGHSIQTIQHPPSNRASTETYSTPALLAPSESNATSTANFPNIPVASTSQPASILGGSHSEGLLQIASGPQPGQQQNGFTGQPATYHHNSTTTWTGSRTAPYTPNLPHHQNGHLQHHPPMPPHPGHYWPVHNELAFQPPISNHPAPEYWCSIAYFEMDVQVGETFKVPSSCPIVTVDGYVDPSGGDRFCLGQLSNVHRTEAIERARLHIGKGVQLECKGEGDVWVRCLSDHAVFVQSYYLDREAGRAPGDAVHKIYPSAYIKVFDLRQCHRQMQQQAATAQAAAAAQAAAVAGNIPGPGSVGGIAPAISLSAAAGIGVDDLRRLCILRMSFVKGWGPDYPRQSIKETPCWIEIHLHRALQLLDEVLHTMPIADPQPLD
# SMAD4 [2] = molecular target: T1, SMAD4; experiment: competition with a labelled probe; details: unlabeled, 100- and 300-fold excess, vs DSPP -211/-183 and SBE probes; 10 mM Tris-HCl pH 7.5, 50 mM NaCl, 1 mM EDTA, 1 mM DTT, 5% glycerol, 2 ug poly(dIdC), 5-10 ug nuclear extract, 1 ng probe, 20 ul, 20 min, room temperature; protein in an extract; label: 32P end label, unlabeled as competitor
# SMAD4 [3] = molecular target: T1, SMAD4; experiment: EMSA; details: 10 mM Tris-HCl pH 7.5, 50 mM NaCl, 1 mM EDTA, 1 mM DTT, 5% glycerol, 2 ug poly(dIdC), 5-10 ug nuclear extract, 1 ng probe, 20 ul, 20 min, room temperature; protein in an extract; label: 32P end label
Sequence,binding result (SMAD4 [1]),binding result (SMAD4 [2]),binding result (SMAD4 [3])
AGTCTAGTCCTTTTGGAACCAAAGGTCT (double strand) [DSPP -211/-183],binds,binds,–
GCAGGGTGACAGAGTCTAAGTGGCTCTTT (double strand) [DSPP -316/-288],–,–,binds
GGTCTCAGTGAGCCAACGTACCGGCG (double strand) [DSPP -188/-163],–,–,binds
TAAGACACAAAACAGTCTTCCAGGAGCT (double strand) [DSPP -258/-231],–,–,binds
